# Source: the supplement of paper PMC6411743
# ± gives the standard deviation of the averaged measurements. This is a selection; strong and weak results do not stand in their true shares.
# Tests used:
# Assay in all cases: NP40-soluble protein abundance relative to vehicle (solubility fold change) (ratio); higher = more soluble protein in presence of ATP
# RBM12 = target: T1, RBM12 (UniProt Q9NTZ6)
# T1 sequence (whole entry): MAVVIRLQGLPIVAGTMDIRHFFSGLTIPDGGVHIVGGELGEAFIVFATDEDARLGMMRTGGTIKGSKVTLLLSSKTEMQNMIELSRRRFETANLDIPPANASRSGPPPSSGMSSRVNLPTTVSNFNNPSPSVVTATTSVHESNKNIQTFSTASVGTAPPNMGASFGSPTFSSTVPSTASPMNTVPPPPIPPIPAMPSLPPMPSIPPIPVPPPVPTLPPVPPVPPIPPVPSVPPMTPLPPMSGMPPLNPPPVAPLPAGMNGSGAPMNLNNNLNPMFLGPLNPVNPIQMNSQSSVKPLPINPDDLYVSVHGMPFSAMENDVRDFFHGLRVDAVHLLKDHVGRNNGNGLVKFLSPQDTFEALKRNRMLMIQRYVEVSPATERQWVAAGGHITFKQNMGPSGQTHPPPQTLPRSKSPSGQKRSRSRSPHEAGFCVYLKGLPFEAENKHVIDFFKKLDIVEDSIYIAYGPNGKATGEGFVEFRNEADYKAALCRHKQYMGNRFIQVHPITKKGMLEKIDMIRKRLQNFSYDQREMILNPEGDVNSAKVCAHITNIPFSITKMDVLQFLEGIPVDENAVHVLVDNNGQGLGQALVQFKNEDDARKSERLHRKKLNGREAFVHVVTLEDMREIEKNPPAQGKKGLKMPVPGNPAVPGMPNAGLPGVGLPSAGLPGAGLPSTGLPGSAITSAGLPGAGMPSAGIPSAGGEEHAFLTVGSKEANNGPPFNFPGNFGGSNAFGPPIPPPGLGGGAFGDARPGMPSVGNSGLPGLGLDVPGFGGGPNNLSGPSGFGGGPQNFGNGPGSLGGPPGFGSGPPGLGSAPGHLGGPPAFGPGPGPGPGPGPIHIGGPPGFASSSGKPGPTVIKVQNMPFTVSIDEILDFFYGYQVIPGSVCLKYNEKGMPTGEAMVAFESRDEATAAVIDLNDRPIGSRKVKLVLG
# Outline: (§1)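 Values are fold changes against the detergent-processed vehicle, based on vsn-normalised intensities. Jurkat crude lysate was treated at eight concentrations from 0.1 to 10 mM (10 min at room temperature, then 3 min at 37 °C), solubilised with 0.8% NP40 and benzonase, ultracentrifuged and analysed by TMT-labelled LC-MS/MS over three independent experiments.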
# SACM1L = target: T2, SACM1L (UniProt Q9NTJ5)
# T2 sequence (whole entry): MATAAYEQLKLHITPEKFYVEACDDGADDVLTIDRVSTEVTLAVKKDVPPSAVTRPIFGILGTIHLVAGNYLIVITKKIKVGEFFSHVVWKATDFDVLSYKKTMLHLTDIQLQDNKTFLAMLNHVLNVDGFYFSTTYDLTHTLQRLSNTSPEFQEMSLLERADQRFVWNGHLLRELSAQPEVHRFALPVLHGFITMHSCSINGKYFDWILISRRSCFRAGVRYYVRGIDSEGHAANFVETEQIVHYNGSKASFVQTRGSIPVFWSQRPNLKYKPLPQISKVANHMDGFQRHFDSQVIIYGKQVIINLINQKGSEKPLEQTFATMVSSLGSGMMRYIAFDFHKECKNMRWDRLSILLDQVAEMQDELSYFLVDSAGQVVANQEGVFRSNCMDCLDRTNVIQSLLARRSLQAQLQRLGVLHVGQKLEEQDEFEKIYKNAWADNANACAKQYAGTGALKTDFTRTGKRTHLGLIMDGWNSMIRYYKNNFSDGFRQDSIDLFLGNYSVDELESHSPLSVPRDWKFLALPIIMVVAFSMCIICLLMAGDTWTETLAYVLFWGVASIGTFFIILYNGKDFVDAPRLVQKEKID
# Outline: as §1
# TMEM9 = target: T3, TMEM9 (UniProt Q9P0T7)
# T3 sequence (whole entry): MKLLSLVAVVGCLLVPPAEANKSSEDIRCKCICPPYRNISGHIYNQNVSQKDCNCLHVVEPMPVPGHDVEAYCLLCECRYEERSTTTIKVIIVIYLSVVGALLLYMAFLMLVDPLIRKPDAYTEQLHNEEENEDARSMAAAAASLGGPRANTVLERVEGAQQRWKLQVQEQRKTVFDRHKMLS
# Outline: as §1
# [1] = target: T4, UniProt Q9NPH3 and related entries
# T4 sequence (whole entry): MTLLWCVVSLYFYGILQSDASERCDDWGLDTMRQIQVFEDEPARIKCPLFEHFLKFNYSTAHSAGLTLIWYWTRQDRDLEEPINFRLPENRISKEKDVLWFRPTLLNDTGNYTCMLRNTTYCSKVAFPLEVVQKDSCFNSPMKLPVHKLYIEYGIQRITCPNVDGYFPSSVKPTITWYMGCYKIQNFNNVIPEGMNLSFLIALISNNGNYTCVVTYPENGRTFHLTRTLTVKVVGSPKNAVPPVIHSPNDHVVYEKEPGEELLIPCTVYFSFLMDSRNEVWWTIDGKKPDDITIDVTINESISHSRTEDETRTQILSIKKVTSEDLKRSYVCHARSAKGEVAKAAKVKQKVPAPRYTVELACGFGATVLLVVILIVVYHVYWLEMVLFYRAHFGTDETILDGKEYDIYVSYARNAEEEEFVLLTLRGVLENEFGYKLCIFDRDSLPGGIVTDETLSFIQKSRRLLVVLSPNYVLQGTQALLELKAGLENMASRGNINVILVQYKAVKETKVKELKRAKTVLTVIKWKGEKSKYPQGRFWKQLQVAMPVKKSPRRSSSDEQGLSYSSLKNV
# Outline: as §1
# [2] = target: T5, UniProt Q9NPI1 and related entries
# T5 sequence (whole entry): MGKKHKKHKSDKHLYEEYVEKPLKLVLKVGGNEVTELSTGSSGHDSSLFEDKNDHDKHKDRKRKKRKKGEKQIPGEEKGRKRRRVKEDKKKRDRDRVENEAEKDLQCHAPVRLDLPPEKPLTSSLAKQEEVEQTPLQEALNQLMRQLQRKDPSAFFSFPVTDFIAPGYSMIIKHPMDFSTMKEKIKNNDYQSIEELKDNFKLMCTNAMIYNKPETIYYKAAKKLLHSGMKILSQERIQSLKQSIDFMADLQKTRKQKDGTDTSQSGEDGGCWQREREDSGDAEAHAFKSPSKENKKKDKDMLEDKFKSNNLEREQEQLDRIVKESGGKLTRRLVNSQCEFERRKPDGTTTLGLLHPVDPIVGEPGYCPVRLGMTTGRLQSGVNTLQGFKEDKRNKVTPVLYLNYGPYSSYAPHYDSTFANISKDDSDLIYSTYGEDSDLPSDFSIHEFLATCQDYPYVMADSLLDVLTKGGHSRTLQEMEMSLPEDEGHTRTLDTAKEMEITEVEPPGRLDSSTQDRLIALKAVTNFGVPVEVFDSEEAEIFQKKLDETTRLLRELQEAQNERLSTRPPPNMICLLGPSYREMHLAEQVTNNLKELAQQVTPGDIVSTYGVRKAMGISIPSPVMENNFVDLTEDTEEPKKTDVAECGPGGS
# Outline: as §1
# UniProt Q9NPJ3 = target: T6, UniProt Q9NPJ3
# T6 sequence (whole entry): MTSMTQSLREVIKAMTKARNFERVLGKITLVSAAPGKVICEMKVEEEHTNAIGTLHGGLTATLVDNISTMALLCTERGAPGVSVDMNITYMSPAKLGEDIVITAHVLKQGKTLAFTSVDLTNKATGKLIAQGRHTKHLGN
# Outline: as §1
compound,measurement,setting,value
Nc1ncnc2c1ncn2[C@@H]1O[C@H](COP(=O)(O)OP(=O)(O)OP(=O)(O)O)[C@@H](O)[C@H]1O [adenosine triphosphate],NP40-soluble protein abundance,RBM12; concentration: 2mM,0.954 ± 0.041
same,NP40-soluble protein abundance,RBM12; concentration: 4mM,0.934 ± 0.045
same,NP40-soluble protein abundance,RBM12; concentration: 6mM,0.942 ± 0.066
same,NP40-soluble protein abundance,RBM12; concentration: 8mM,0.92 ± 0.022
same,NP40-soluble protein abundance,RBM12; concentration: 10mM,0.925 ± 0.017
same,NP40-soluble protein abundance,SACM1L; concentration: 1mM,1.05 ± 0.068
same,NP40-soluble protein abundance,SACM1L; concentration: 2mM,1 ± 0.061
same,NP40-soluble protein abundance,SACM1L; concentration: 4mM,0.982 ± 0.052
same,NP40-soluble protein abundance,SACM1L; concentration: 6mM,0.977 ± 0.09
same,NP40-soluble protein abundance,SACM1L; concentration: 8mM,0.988 ± 0.046
same,NP40-soluble protein abundance,SACM1L; concentration: 10mM,0.97 ± 0.025
same,NP40-soluble protein abundance,TMEM9; concentration: 1mM,0.905 ± 0.066
same,NP40-soluble protein abundance,TMEM9; concentration: 2mM,0.91 ± 0.06
same,NP40-soluble protein abundance,TMEM9; concentration: 4mM,0.94 ± 0.038
same,NP40-soluble protein abundance,TMEM9; concentration: 6mM,0.919 ± 0.042
same,NP40-soluble protein abundance,TMEM9; concentration: 8mM,0.931 ± 0.028
same,NP40-soluble protein abundance,TMEM9; concentration: 10mM,0.872 ± 0.042
same,NP40-soluble protein abundance,[1]; concentration: 1mM,0.801 ± 0.1
same,NP40-soluble protein abundance,[1]; concentration: 2mM,0.91 ± 0.12
same,NP40-soluble protein abundance,[1]; concentration: 4mM,0.95 ± 0.058
same,NP40-soluble protein abundance,[1]; concentration: 6mM,0.988 ± 0.076
same,NP40-soluble protein abundance,[1]; concentration: 8mM,0.96 ± 0.14
same,NP40-soluble protein abundance,[1]; concentration: 10mM,0.955 ± 0.14
same,NP40-soluble protein abundance,[2]; concentration: 1mM,1.16 ± 0.047
same,NP40-soluble protein abundance,[2]; concentration: 2mM,1.21 ± 0.069
same,NP40-soluble protein abundance,[2]; concentration: 4mM,1.29 ± 0.039
same,NP40-soluble protein abundance,[2]; concentration: 6mM,1.37 ± 0.15
same,NP40-soluble protein abundance,[2]; concentration: 8mM,1.38 ± 0.05
same,NP40-soluble protein abundance,[2]; concentration: 10mM,1.43 ± 0.049
same,NP40-soluble protein abundance,UniProt Q9NPJ3; concentration: 1mM,0.949 ± 0.064
same,NP40-soluble protein abundance,UniProt Q9NPJ3; concentration: 2mM,0.95 ± 0.049
same,NP40-soluble protein abundance,UniProt Q9NPJ3; concentration: 4mM,0.892 ± 0.038

# Another view of some results above.
compound	measurement	setting	value
Nc1ncnc2c1ncn2[C@@H]1O[C@H](COP(=O)(O)OP(=O)(O)OP(=O)(O)O)[C@@H](O)[C@H]1O [adenosine triphosphate]	NP40-soluble protein abundance	[1]; concentration: 10mM	0.955 ± 0.14
same	NP40-soluble protein abundance	[2]; concentration: 1mM	1.16 ± 0.047
